Reference: PubChem BioAssay AID1259415 (National Center for Advancing Translational Sciences (NCATS), 2018)
Among all 410,000 compounds or so, about 18,000 (4.4%) were called active. The inconclusive results got no clear call from the source; some entries with a clear call stand among them for comparison. Rule as the data show it: active = activity change below about -60%; inconclusive = no clear call, values can overlap the other calls; inactive = above about -39%.

Experiment: qHTS Assay for inhibitors of the human cytomegalovirus (HCMV)
Details: HFF cells, HCMV-luciferase reporter, 72 h; at 57.5 µM; hits give low values
Method in brief: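 Compounds were evaluated in HFFs infected with an HCMV luciferase reporter virus (MOI 1 PFU/cell). Luciferase in lysates collected 72 h post infection served as the replication measure.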
% is scaled to controls: 0 for no effect and ±100 for the full control effect.

Row | Structure (SMILES) | activity change, negative = inhibition
1 | COc1cccc(Nc2nc(-c3sc(NC(=O)c4ccco4)nc3C)cs2)c1 | inactive: -12%
2 | CN(CC(=O)NCc1ccc(F)cc1)S(=O)(=O)c1ccc2c(c1)c(=O)n(C)c(=O)n2C | inconclusive: -41.1%
3 | Fc1ccc(CNc2cc(-c3ccccc3)nc3nncn23)cc1 | inconclusive: -53%
4 | Cc1ccc(S(=O)(=O)N2CCC3(CC2)OCCN3S(=O)(=O)c2c(C)cc(C)cc2C)cc1 | inactive: 3.86%
5 | COc1ccc(OC)c(NC(=O)C(CCSC)NS(=O)(=O)c2cccs2)c1 (stereo not given) | inconclusive: -53.7%
6 | CCc1ccc(-c2cc(C)no2)cc1S(=O)(=O)N1CCN(c2ccc(C(C)=O)cc2)CC1 | inconclusive: -50.9%
7 | Clc1ccc(-c2nnc(CSc3nnc(-c4cccs4)n3Cc3ccccc3)o2)cc1 | active: -88.1%
8 | Cc1nn(C)c(Nc2ccc(Br)cc2)c1Br | active: -83.2%
9 | COc1ccc(/C(O)=C/C(=O)C(=O)NNC(=O)c2ccccc2)cc1 | inconclusive: -53.6%
10 | ClCCn1c(CCl)nc2ccc(Cl)cc21 | inactive: -14.6%
11 | CC(=O)c1cccc(NC(=O)c2ccccc2OCc2ccc(F)cc2)c1 | inactive: -34.6%
12 | CN(C)c1ccc(CNC(=O)C(Cc2ccccc2)NS(=O)(=O)c2ccc3c(c2)oc(=O)n3C)cc1 (stereo not given) | inactive: -1.06%
13 | CCC(C)(C)c1ccc(OCCCC[n+]2cccc(C)c2C)c(C(C)(C)CC)c1 | active: -96.6%
14 | CCOC(=O)NCc1ccc2[nH]c(C)cc2c1 | inactive: 15.4%
15 | S=c1nc(-c2sccc2OCc2ccc(Cl)cc2Cl)[nH][nH]1 | inconclusive: -44%
16 | CN(CC(=O)Nc1cccc(C#N)c1)Cc1ccc(Cl)cc1 | inconclusive: -46.5%
17 | COC(=O)Cc1nnn2c1[C@@H](C)[C@@H](c1ccccc1Br)O[C@@H](C)C2 | inconclusive: -57.8%
18 | COc1ccc(NC(=O)c2cc3c(=O)n(Cc4ccco4)ccc3nc2C)c(OC)c1 | inconclusive: -56.9%
19 | COc1cccc(/C=N/NC(=O)c2cnccn2)c1O | inactive: 17.4%
20 | Cc1cc2c(ncn2C(C)C)c(NS(=O)(=O)c2ccc(F)cc2)c1C | inconclusive: -45.5%
21 | COc1ccc(C(O)c2nc(-c3cccc(C(F)(F)F)c3)cs2)cc1 (stereo not given) | inconclusive: -50.1%
22 | COc1cc2c(=O)n(CCC(=O)NCC3CCCO3)c(=O)n(CC(=O)Nc3c(C)cccc3C)c2cc1OC (stereo not given) | inactive: 5.51%
23 | COc1ccc(S(=O)(=O)N2CCC(C)CC2)cc1N(C)S(=O)(=O)c1ccccc1 | inconclusive: -48.9%
24 | CCOc1ccc(CNC(=O)CCCn2ccc3cc(S(=O)(=O)N4CCCC4)ccc32)cc1 | inconclusive: -40.9%
25 | O=C(NCc1ccc2c(c1)OCO2)c1nn(-c2ccccc2)c(=O)c2ccccc12 | inconclusive: -40.1%
26 | COc1cccc(CCNc2ncnc3c2nnn3C)c1 | inconclusive: -48.8%
27 | COc1ccc(CN(C)C(=O)Cn2cc(C)c(=O)[nH]c2=O)cc1OC | inactive: 11.2%
28 | CCN1C(=O)[C@H]2[C@@H](c3ccc(OC)cc3)N3C(=O)CN(CCOC)C(=O)[C@@]3(Cc3ccccc3)[C@H]2C1=O | inconclusive: -51.3%

Row | Structure (SMILES) | activity change, negative = inhibition
29 | Cc1ccc2c(c1)C(=O)N1[C@H]3c4cc(Cl)ccc4OC[C@@H]3[C@H](c3ccccc3)[C@]1(C)C(=O)N2 | inconclusive: -48.2%
30 | Cc1ccc2c(c1C)-c1c(ccc(C)c1C)C(=O)C2=O | active: -96.3%
31 | CC(=O)N1[C@H](C)C=C[C@]1(Cc1ccccc1)C(=O)O | inconclusive: -40.6%
32 | Cc1c(NC(=O)C(C)N2C(=O)NC3(CCC(C)CC3)C2=O)c(=O)n(-c2ccccc2)n1C (stereo not given) | inactive: -15.7%
33 | Oc1ccc2ccccc2c1CNc1ccc2ccccc2c1 | inconclusive: -45.9%
34 | Cc1ccc(C2C(/C=C3/SC(=S)NC3=O)=C(c3cccs3)Oc3ccccc32)cc1 (stereo not given) | active: -60.8%
35 | COc1ccc(-n2ncc3c2ncn2nc(-c4ccc(Cl)cc4Cl)nc32)cc1 | inactive: -26.7%
36 | CSc1ccc(-c2nnn(Cc3ccc(C)cc3)n2)cc1 | inactive: 54.9%
37 | COCCn1c(SCC(=O)Nc2ccc(F)cc2)nc2c(c1=O)SCC2 | inconclusive: -56.7%
38 | CN1C(=O)c2ccccc2Sc2ccc(NC(=O)COc3ccc(Cl)cc3)cc21 | inactive: -24.4%
39 | CN1C(C)(C)CCCC1(C)C | inconclusive: -48.5%
40 | Cc1ccc(S(=O)(=O)Nc2cccc(-c3cn4ccsc4n3)c2)cc1 | inconclusive: -49.8%
41 | Cn1c(=O)c2c(-c3ccccc3)n(-c3cccc(O)c3)cc2n(C)c1=O | inactive: 22.9%
42 | CSCCC(NS(=O)(=O)c1ccccc1F)C(=O)NCc1cccnc1 (stereo not given) | inconclusive: -41.1%
43 | COc1ccccc1C(C(=O)c1ccccc1)c1ccc(O)cc1 (stereo not given) | inconclusive: -51.9%
44 | O=S(=O)(CC(CN1CCCC1)N1CCCC1)c1ccc2ccccc2c1 (stereo not given) | active: -102%
45 | COCCCNC(=O)CSC1=Nc2ccccc2C2=NC(c3ccccc3)C(=O)N12 (stereo not given) | active: -63.8%
46 | CCCCCCSc1cc(-c2nc3ccc(Cl)cn3c2NCCCC)ccc1OC | inconclusive: -54.1%
47 | CC(C)C(=O)Nc1cccc(C(=O)Nc2nnc(C(C)C)s2)c1 | inactive: 15.1%
48 | CCOc1ccc(NC(=O)Cn2c(=O)n(Cc3nc(-c4ccccc4)no3)c(=O)c3ccccc32)cc1 | inactive: 3.62%
49 | O=C(CSc1ccc2ccccc2c1)NC1CCCc2ccccc21 (stereo not given) | inconclusive: -54.2%
50 | Cc1ccc(-c2cc(Cc3ccncc3)c(=O)[nH]n2)cc1 | inactive: 1.45%
51 | CC(=O)c1cc2c(cc1NS(=O)(=O)c1ccc(F)cc1)OCO2 | inconclusive: -41.8%
52 | COc1ccc(-c2c(C)nn3c(NC4CCCC4)cc(C)nc23)cc1OC | inconclusive: -46.4%
53 | O=C(Nc1ccccc1C(=O)NCC1CC1)c1cccs1 | inactive: 0.821%
54 | Cc1ccc2c(c1)N(C(=O)c1ccco1)C(C)(C)c1ssc(=S)c1-2 | inconclusive: -43.8%
55 | CCOC(=O)Cc1[nH]nc2c1C(c1ccsc1)C(C#N)=C(N)O2 (stereo not given) | inconclusive: -56.8%

Pulled one by one from above (2):
Row | Structure (SMILES) | activity change, negative = inhibition
51 | CC(=O)c1cc2c(cc1NS(=O)(=O)c1ccc(F)cc1)OCO2 | inconclusive: -41.8%
47 | CC(C)C(=O)Nc1cccc(C(=O)Nc2nnc(C(C)C)s2)c1 | inactive: 15.1%

Part of the list above, comma-delimited:
Row,Structure (SMILES),"activity change, negative = inhibition"
42,CSCCC(NS(=O)(=O)c1ccccc1F)C(=O)NCc1cccnc1 (stereo not given),inconclusive: -41.1%
43,COc1ccccc1C(C(=O)c1ccccc1)c1ccc(O)cc1 (stereo not given),inconclusive: -51.9%
